# At least one compound was matched to its structure with a doubt left.
# Test system: CLL cells (leukemic lymphocytes)
# Assay: Assessment of mitochondrial membrane potential (CMXRos, flow cytometry)
# Type: cell-based, human
# Conditions: 1.6 μM, 24-hour cultures
# Description: Mitochondrial membrane potential is an early indicator of apoptosis. CMXRos, i.e. Chloromethyl-X-rosamine (the reagent's name by Mito Tracker Red CMXRos, Molecular Probes, USA), and a monoclonal antibody to glycophorin A conjugated with FITC (the reagent's name of Anti-Glycophorin A FITC by Dako, Denmark) were used for its assessment. CMXRos is a lipophilic cationic dye that accumulates in the mitochondrial matrix of viable cells when there is an electronegative load on the inner surface of the mitochondrial membrane. This asymmetric location of protons along the inner mitochondrial membrane leads to a high mitochondrial membrane potential (ΔΨm) in living cells. […]
# The stock CMXRos solution was prepared by dilution of the substance supplied by the manufacturer in 94 μl DMSO (dimethylsulphoxide), and stored at 20° C. […] The samples were next measured using flow cytometry. The percentage of cells not bound to anti-glycophorin A-FITC (ΔΨm^low/Gly-A^− cells), with low mitochondrial potential, was calculated.
# All fluorescence measurements were performed by a flow cytometer FACSCalibur (Becton Dickinson, USA) equipped with an argon laser 488 nm and computer program CellQuestPro (Becton Dickinson, USA). Each time 10 000 cells were evaluated. The fluorescence was measured using standard emission filters: green—FL1 (wavelength λ=530±20 nm) and red—FL3 (>600 nm).
smiles,measurement,value
"Nc1nc(F)nc2c1ncn2[C@@H]1O[C@H](CO)[C@@H](O)[C@@H]1O [FA, fludarabine]",apoptotic cells rate (mitochondrial potential) compared with the dendrimer,comparable to the percentage of apoptotic cells for the PPI-G4-DS-Mal-III dendrimer concentration of 8 mg/ml
